Source: PubChem BioAssay AID1259308 (NCATS, 2017)

Aim: 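Genes whose loss raises luciferase production in HEK293 cells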 (primary screen)
System: human HEK293 embryonic kidney cells stably expressing firefly luciferase (HEK-CMV-Luc2-Hygro)
Knock-down reagent: single siRNA against human genes, 0.8 pmol siRNA per well
Timing: 72 h
Detection: 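Reporter luminescence and viable-cell signal on separate replicate plates, given as percent of non-targeting control and median/MAD z-scores, plus per-cell luciferase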
Direction: total luciferase, z-score: higher = more reporter protein produced
Active means: 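Active when the median/MAD z-score for overall luciferase is greater than 3; a gene was taken forward for validation with new siRNAs if at least two of its three siRNAs passed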
Meaning of the calls: active = raised luciferase; inactive = no rise
In all, the deposit lists about 59,000 reagents; shown is an unselected part. About 1,510 of all reagents (2.6%) count as active. 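Calls use total luciferase alone and ignore viability, so some active siRNAs may act by altering cell number.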 The numbers tell different reagents against one gene apart. Not all columns of the deposit are shown. No sequences are given here.

gene,reagent,"total luciferase, z-score",call
KIR2DL5B,1,-0.0596,inactive
KIR2DL5B,2,1.08,inactive
KIR2DL5B,3,2.2,inactive
KRT74 (keratin 74),1,0.313,inactive
KRT74 (keratin 74),2,-0.416,inactive
KRT74 (keratin 74),3,-0.757,inactive
SPIB (Spi-B transcription factor),1,-0.157,inactive
SPIB (Spi-B transcription factor),2,0.183,inactive
SPIB (Spi-B transcription factor),3,1.09,inactive
MAPK11 (mitogen-activated protein kinase 11),1,-0.263,inactive
MAPK11 (mitogen-activated protein kinase 11),2,3.17,active
MAPK11 (mitogen-activated protein kinase 11),3,0.502,inactive
"GMCL1 (germ cell-less 1, spermatogenesis associated)",1,0.0506,inactive
"GMCL1 (germ cell-less 1, spermatogenesis associated)",2,-0.117,inactive
"GMCL1 (germ cell-less 1, spermatogenesis associated)",3,0.584,inactive
LY86 (lymphocyte antigen 86),1,-0.185,inactive
LY86 (lymphocyte antigen 86),2,-0.225,inactive
LY86 (lymphocyte antigen 86),3,-0.776,inactive
PDLIM7 (PDZ and LIM domain 7),1,0.309,inactive
PDLIM7 (PDZ and LIM domain 7),2,-0.303,inactive
PDLIM7 (PDZ and LIM domain 7),3,1.58,inactive
SKP1 (S-phase kinase associated protein 1),1,0.115,inactive
SKP1 (S-phase kinase associated protein 1),2,-1.11,inactive
SKP1 (S-phase kinase associated protein 1),3,0.105,inactive
KDM1B (lysine demethylase 1B),1,0.194,inactive
KDM1B (lysine demethylase 1B),2,-0.639,inactive
KDM1B (lysine demethylase 1B),3,-0.239,inactive
PDGFRB (platelet derived growth factor receptor beta),1,0.0872,inactive
PDGFRB (platelet derived growth factor receptor beta),2,-0.252,inactive
PDGFRB (platelet derived growth factor receptor beta),3,1.19,inactive
ZMYND10 (zinc finger MYND-type containing 10),1,2.2,inactive
ZMYND10 (zinc finger MYND-type containing 10),2,1.35,inactive
ZMYND10 (zinc finger MYND-type containing 10),3,0.907,inactive
KCNJ2-AS1 (KCNJ2 antisense RNA 1),1,0.887,inactive
KCNJ2-AS1 (KCNJ2 antisense RNA 1),2,-0.0622,inactive
KCNJ2-AS1 (KCNJ2 antisense RNA 1),3,0.594,inactive
ABR (ABR activator of RhoGEF and GTPase),1,-0.672,inactive
ABR (ABR activator of RhoGEF and GTPase),2,0.421,inactive
ABR (ABR activator of RhoGEF and GTPase),3,0.948,inactive
